Most values lie at the floor of the assay. Slopes are relative: functional sequences can read slightly below zero.
Test system: Saccharomyces cerevisiae PS128 hsf1 delta, HSF1(1-493) fusion
Assay: growth estimate (transactivation domain function in HSF1 fusion, heat-shock survival) (a.u. (slope of normalised read count over time)); higher = stronger growth at 37°C, i.e. more transactivation activity
Conditions: library: random library

Row | Substance | growth estimate
1 | SQIEMQTFDDNSNTHCPCTP | < -0.25
2 | PGSRLAPMSWPQHGCPSP | < -0.25
3 | PSM | < -0.25
4 | LRDAGAAAGLPDPRSYDKLH | < -0.25
5 | ELLLDAAQRMLFLAVCFTYE | < -0.25
6 | LWMVCSRS | < -0.25
7 | AVPCSFLWGSASYFNSKAIM | -0.243
8 | TVFDVLRRYSP | < -0.25
9 | GSFFQGELAYKRLCNKTSPH | < -0.25
10 | GSI | < -0.25
11 | WKRNNRCLFLSHR | < -0.25
12 | RIRERPTV | < -0.25
13 | LLRI | < -0.25
14 | PSNG | < -0.25
15 | PICLAPAFDTVTETGYRQNA | < -0.25
16 | LEGFPSTPGPSIADTMESPR | < -0.25
17 | PCTIGGKRMSPAGSVPVWAH | < -0.25
18 | LGSVVYNPRW | < -0.25
19 | ALNVFSTVASGLHSMRRIFE | -0.218
20 | VMPCYKL | < -0.25
21 | HAPIMNL | < -0.25
22 | VSAGGVSSETA | < -0.25
23 | VSSSRSHSLKAQSVFF | < -0.25

Row | Substance | growth estimate
24 | PLSWPGSVFGSGGLPVEGCR | < -0.25
25 | RLMRSRI | < -0.25
26 | FGVCP | < -0.25
27 | TQVGRRIGRLTRFGCELNII | < -0.25
28 | GGLMFE | < -0.25
29 | GRGTCGRKIFNVPGSVDI | < -0.25
30 | LRYILFEP | < -0.25
31 | IRIRQNHGSLRTDQHEGTSI | < -0.25
32 | LRPPWKALAPSPSVCHVCGF | < -0.25
33 | FITLPLPAEHGG | < -0.25
34 | NTGNSGLDAGYILQHASTPR | < -0.25
35 | LGIQTVETDPLGPLMWHGLQ | < -0.25
36 | SSPVLSL | < -0.25
37 | RVW | < -0.25
38 | GQHSLEMVTQVVMML | < -0.25
39 | SGLPLAWPVKYNVLHECPAV | < -0.25
40 | QNGRALGSWGNRLRWVG | < -0.25
41 | GMNPAVRGPDRCNGLSMRLG | < -0.25
42 | NLSTTDGDR | < -0.25
43 | PEAALHRV | < -0.25
44 | LVT | < -0.25
45 | KDGISCARVSRGKGRAVAVL | < -0.25
46 | GDSMHSGLRWKI | < -0.25

Quoted at random: 3 records from the list, in no set order.
Row | Substance | growth estimate
39 | SGLPLAWPVKYNVLHECPAV | < -0.25
29 | GRGTCGRKIFNVPGSVDI | < -0.25
38 | GQHSLEMVTQVVMML | < -0.25

More entries.

Row | Substance | growth estimate
47 | DINLPYRPVKTVFVVGPVRG | < -0.25
48 | HVSNRLEVCASWGSPVTPSV | < -0.25
49 | GKSVRIKDLPASAATLQRSS | < -0.25
50 | RYKIS | < -0.25
51 | TPCWLRIVFGS | < -0.25
52 | NRQTSVIYLAGHSRSNVSGR | < -0.25
53 | WTGGLLNVFLFYPEMVHLRI | < -0.25
54 | GDLIEDSEGSFTSTS | < -0.25
55 | ADKGERYLYDMVSVAGLNCG | < -0.25
56 | TEGCGPTCSGDTVAKALAPV | < -0.25
57 | SSCRIKQDLPWSLAAIPRGC | < -0.25
58 | SYKTVLPVVVMTARFEPRTR | < -0.25
59 | LRSVTRSLGLRTVTPLGHDA | < -0.25
60 | RARRPHVQDSPKDVRGGSPT | < -0.25
61 | IFCVRHPNFIFCGLECRSAC | < -0.25
62 | LGVVIIPEGTRWIIRSYHPT | < -0.25
63 | RSPAFAVIWSPPSFGLRLWA | < -0.25
64 | CHMMKISS | < -0.25
65 | SGNGVRNRQRPVGEQMGAHV | < -0.25
66 | VRGSITGTKGSPIILLFDIG | < -0.25
67 | KVQGSDTDVTRGTQPPSHLN | < -0.25
68 | THRCVAERYAGQ | < -0.25
69 | IKTT | < -0.25

Row | Substance | growth estimate
70 | LNEAKHESKLLLEVRECLVA | < -0.25
71 | RDVRISCTQLVDESFRLS | < -0.25
72 | SVGFEIRHSIVPDDHWKSHA | < -0.25
73 | QPTKINICVFMRPR | < -0.25
74 | VLRT | < -0.25
75 | SRRAYLLW | < -0.25
76 | GSWL | < -0.25
77 | AIVFESP | < -0.25
78 | FYLISQL | < -0.25
79 | GYSRQSMCSEMDS | < -0.25
80 | GKQATGCL | < -0.25
81 | CTHRTKVDVRTVEGHRTLTQ | < -0.25
82 | LVVPMHHARVSIYLLSMGST | < -0.25
83 | KVSPTEEPVMFG | < -0.25
84 | DSGPDLQGVDSVRSAPTILV | < -0.25
85 | GYNMKTGGERDRGVRSKSYR | < -0.25
86 | KSA | < -0.25
87 | WRFPDKARLKAP | < -0.25
88 | HSGCAGI | < -0.25
89 | ITYNQ | < -0.25
90 | LPPELKLYGFVLIRGIRSCV | < -0.25
91 | GIFRVYC | < -0.25
92 | ILVSAANEVGCIGSL | < -0.25

Row | Substance | growth estimate
93 | TDVGTHTEGLTSHARAPYAR | < -0.25
94 | PLLLEEKAFRGDLTTD | < -0.25
95 | HSISPGQSTIASARFGLAMC | < -0.25
96 | SHCVSSLIRLPMSRGNSTSG | < -0.25
97 | FNSTT | < -0.25
98 | GYLLYEWRSAGNDRKASWTT | < -0.25
99 | LNNKDCKIFCCEKCDFKCEA | < -0.25
100 | SCTTGGRYEAIGSRSNPRRQ | < -0.25
101 | RMRTTRAMMIVPDRGGHEPR | < -0.25
102 | RIRRCYLGTLIISLVR | < -0.25
103 | NPKCSVGFQTSCNHVKTT | < -0.25
104 | RGKYTDGKPHCWSAAQNTGA | < -0.25
105 | KGESYYASV | < -0.25
106 | FVSHLAWSH | < -0.25
107 | PNRPMQLEQR | < -0.25
108 | LRRGFVLPSTSLPLR | < -0.25
109 | LKQLMRLMECLRCGVGREAP | < -0.25
110 | QYQPSWLIYRRGTFKRRMGK | < -0.25
111 | GRLIFINESEVTQVG | < -0.25
112 | SGVSPGQSRA | < -0.25
113 | LVYMYPQTGI | < -0.25
114 | VGTPRRRSSSACCEMDSTHS | < -0.25
115 | RLV | < -0.25

Row | Substance | growth estimate
116 | VTIARLSCAGLFWTIDSGDQ | < -0.25
117 | VID | < -0.25
118 | ASKQSICKSAYERGKRHARE | < -0.25
119 | NLGIRRRRLAEIGSGRDRSR | < -0.25
120 | LTYAVVPA | < -0.25
121 | FAILLDPAMYYSACSMHALV | < -0.25
122 | RAGRT | < -0.25
123 | LCRACVCSVATLYYWGHHLD | < -0.25
124 | EVGSVTLVLLAYPSSLAFTS | < -0.25
125 | AGQGLPGFVSN | < -0.25
126 | DKLKQCCRGIVHGGYRPEAP | < -0.25
127 | LGRNRLLVFC | < -0.25
128 | WWSPD | < -0.25
129 | PLSRESKLRYCPPRF | < -0.25
130 | RGRCLDISAIRGPHWHEYHA | < -0.25
131 | SLCPVKWCA | < -0.25
132 | VLVTALRFKTAERGIMCVTA | < -0.25
133 | DTFLASQGSGEQQRYRSRLG | < -0.25
134 | LRRPRGYRRGSAYSRKFGPV | < -0.25
135 | GVVPFGNP | < -0.25
136 | WLVEGSAR | < -0.25
137 | HKTIVQAKISYTIDRTQGWR | < -0.25
138 | MIAMFINTRHRDVANLSLSQ | < -0.25

Row | Substance | growth estimate
139 | SLDRTLMGGGVYMDSSIRGA | < -0.25
140 | ITWLLLSGLPAAAVHYVCLP | < -0.25
141 | AGCRS | < -0.25
142 | LSDGCTRVPFQGKRTIPMSV | < -0.25
143 | EQDKDDPSVAV | < -0.25
144 | LHGTVMTLERGPAAYL | < -0.25
145 | IAAPKSTLRAQGRSPLFYVR | < -0.25
146 | APRCSLKASCIFCPSEASDQ | < -0.25
147 | FPYMRLSCTARTIFSHLTKQ | < -0.25
148 | IRLECSSESAIRDRPTGTVI | < -0.25
149 | KKDRASGSFPVCRPRWPGTS | < -0.25
150 | CELAVTLLGSVMVFCANH | < -0.25
151 | HLFKRQRGFQQLASQPHRGP | < -0.25
152 | RRLQLCKVEAWGETNADGFR | < -0.25
153 | SSFVKPIHVRT | < -0.25
154 | LASTV | < -0.25
155 | TDCQLPLGSRFVSRSRRRHG | < -0.25
156 | HNRWLNRSVVRGGTEVTTMA | < -0.25
157 | LTLPLASASGGWKKRPKGGY | < -0.25

A different layout for some results above:

| Row | Substance | growth estimate |
| --- | --- | --- |
| 109 | LKQLMRLMECLRCGVGREAP | < -0.25 |
| 110 | QYQPSWLIYRRGTFKRRMGK | < -0.25 |
| 111 | GRLIFINESEVTQVG | < -0.25 |
| 112 | SGVSPGQSRA | < -0.25 |
| 113 | LVYMYPQTGI | < -0.25 |
| 114 | VGTPRRRSSSACCEMDSTHS | < -0.25 |

Reference: the supplement of paper PMC5949888
